Source: patent publication US7906486B2, “Method of treating or preventing tissue deterioration, injury or damage due to disease of mucosa” (SciClone Pharmaceuticals, Inc., priority 2007, dated 2011)
Values joined by “and” are separate entries in the source; they are usually repeats but may differ in a detail not shown here. Identical values can stand only once. Further values from the same series stand in other lists.

Tested on: oral mucositis induced by fractionated radiation (eight doses of 7.5 Gy, left buccal cheek pouch)
Assay: Oral mucositis induced by fractionated radiation in hamsters, mucositis scoring (Example 3, SCI-03)
Type: in vivo, Syrian Golden Hamsters
Design: key: 0: Pouch completely healthy. No erythema or vasodilation.; 1: Light to severe erythema and vasodilation. No erosion of mucosa.; 2: Severe erythema and vasodilation. Erosion of superficial aspects of mucosa leaving denuded areas. Decreased stippling of mucosa.; 3: Formation of off-white ulcers in one or more places. Ulcers may have a yellow/gray due to pseudomembrane. Cumulative size of ulcers should equal about ¼ of the pouch. Severe erythema and vasodilation.; 4: Cumulative seize of ulcers should equal about ½ of the pouch. Loss of pliability. Severe erythema and vasodilation.; 5: Virtually all of pouch is ulcerated. Loss of pliability (pouch can only partially be extracted from mouth)
Excerpt: The fractionated radiation model in hamsters, developed by the Principal Investigator, has proven to be an accurate, efficient and cost-effective technique to provide a preliminary evaluation of anti-mucositis compounds. In this model, hamsters receive 8 doses of 7.5 Gy to the left cheek pouch on days 0, 1, 2, 3, […], rather than the single dose of 40 Gy on day 0 that is used in acute radiation studies. The rationale for using this scheduling for the radiation is that it more closely resembles the clinical courses of radiotherapy given to cancer patients. The course of mucositis in this model is well defined and results in peak mucositis scores approximately 14-16 days following radiation. Mortality (generally from the side effects of anesthesia) in the fractionated radiation model is slightly higher than that seen in the acute radiation model and group sizes are increased (to 10 per group) to allow for this.
(§1) Forty (40) male Syrian Golden Hamsters were given eight doses of radiation of 7.5 Gy each directed to their left buccal cheek pouch on days 0, 1, 2, 3, 6, 7, 8 and 9. This was accomplished by anesthetizing the animals and everting the left buccal pouch, while protecting the rest of the animal's bodies with a lead shield. Test materials were given by sub-cutaneous injection once daily as detailed in Table 9. Mucositis was evaluated clinically starting on day 7, and continuing on alternate days until day 35. Test articles were given as outlined Table 9, Groups 1 and 2 were dosed from Day −1 to Day 29, Group 3 was dosed on the days of radiation only, Group 4 was dosed on the days between Day −15 and Day 29 on which no radiation is given (Day −1, Day 4, Day 5 and Day 10 to Day 29).
The effect on mucositis of each drug treatment compared to placebo was assessed according to the following parameters:
On each evaluation day, the number of animals with a blinded mucositis score of ≧3 in each drug treatment group was compared to the control group. Differences were compared on a cumulative basis and statistical significance was determined by chi-square analysis. Efficacy, in this analysis, is defined by a significant reduction in the number of days that a group of animals had ulcerations (scores ≧3) when compared to the control group.
For each evaluation day the scores of the control group were compared to those of the treated groups using non-parametric rank sum analysis. Treatment success was considered as a statistically significant lowering of scores in the treated group on 2 or more days from day 6 to day 28.
as §1, with “daily at 8:00 am” for “daily”, “9. […]” for “9. Mucositis was evaluated clinically starting on day 7, and continuing on alternate days until day 35.”, “2 was” for “2 were”, “radiation only (days 0-3 and days 6-10),” for “radiation only,”, “Day −1” for “Day −15”, “Day 4 to” for “Day 4,”
Radiation was generated with a Philips 160 kVp (kilovolt potential) (18.75-ma) X-ray source at a focal distance of 30 cm, with a 3.0 mm hardened Al filtration system. Irradiation was targeted to the left buccal pouch mucosa at a rate of 3.32 Gy/minute. […] Using this calibration, the energy received by each animal at each radiation dose was approximately 64.5 nC (nanoCoulombs) at each time point. Prior to irradiation, animals were anesthetized with an intraperitoneal injection of ketamine (160 mg/kg) and xylazine (8 mg/kg). The left buccal pouch was everted, fixed and isolated using a lead shield.
The mucositis score, weight change and survival were measured throughout the study as described above. […]

## N[C@H](CCC(=O)N[C@@H](Cc1c[nH]c2ccccc12)C(=O)O)C(=O)O [SCV-07, γ-D-glutamyl-L-tryptophan]
Group 2, day 13, individual animals (two score lines each)
  Mucositis score: 1
Group 2, day 29, individual animals (two score lines each)
  Mucositis score: 0
Group 2, day 33, individual animals (two score lines each)
  Mucositis score: 0
Group 3, day 7, individual animals (two score lines each)
  Mucositis score: 0
Group 3, day 9, individual animals (two score lines each)
  Mucositis score: 1 (12×) and 0 (6×)
Group 3, day 11, individual animals (two score lines each)
  Mucositis score: 1
Group 3, day 15, individual animals (two score lines each)
  Mucositis score: 3
Group 3, day 17, individual animals (two score lines each)
  Mucositis score: 3
Group 3, day 19, individual animals (two score lines each)
  Mucositis score: 3
Group 3, day 21, individual animals (two score lines each)
  Mucositis score: 3
Group 3, day 23, individual animals (two score lines each)
  Mucositis score: 3
Group 3, day 25, individual animals (two score lines each)
  Mucositis score: 1
Group 3, day 29, individual animals (two score lines each)
  Mucositis score: 1 (16×) and 0 (4×)
Group 3, day 31, individual animals (two score lines each)
  Mucositis score: 0 (8×) and 1 (8×)
Group 3, day 33, individual animals (two score lines each)
  Mucositis score: 1 (16×) and 0 (4×)
Group 3, day 35, individual animals (two score lines each)
  Mucositis score: 1 (14×) and 0 (6×)
Group 4, day 7, individual animals (two score lines each)
  Mucositis score: 0
Group 4, day 9, individual animals (two score lines each)
  Mucositis score: 0 (2×) and 1 (18×)
Group 4, day 11, individual animals (two score lines each)
  Mucositis score: 1
Group 4, day 13, individual animals (two score lines each)
  Mucositis score: 1
Group 4, day 15, individual animals (two score lines each)
  Mucositis score: 3
Group 4, day 17, individual animals (two score lines each)
  Mucositis score: 3
Group 4, day 19, individual animals (two score lines each)
  Mucositis score: 3
Group 4, day 21, individual animals (two score lines each)
  Mucositis score: 3
Group 4, day 23, individual animals (two score lines each)
  Mucositis score: 3
Group 4, day 25, individual animals (two score lines each)
  Mucositis score: 3
Group 4, day 27, individual animals (two score lines each)
  Mucositis score: 3
Group 4, day 29, individual animals (two score lines each)
  Mucositis score: 1 (12×) and 0 (6×)
Group 4, day 31, individual animals (two score lines each)
  Mucositis score: 0 (8×) and 1 (10×)
Group 4, day 33, individual animals (two score lines each)
  Mucositis score: 1 (14×) and 0 (4×)
Group 4, day 35, individual animals (two score lines each)
  Mucositis score: 0 (6×) and 1 (14×)
